Experiment [1] deals with TRAIL-R2/Fc fusion protein (R & D Systems) (UniProt O14763). Description: Attana biosensor, TRAIL-R2 chip, qualitative comparison.
For experiment [2] the target is unchanged. Nature of the experiment: biosensor, TRAIL-R2-Fc fusion protein immobilized on the chip.

The chains behind the UniProt entries cited, without tags or fusion partners. Residues count along the entry.
UniProt O14763, residues 54-182: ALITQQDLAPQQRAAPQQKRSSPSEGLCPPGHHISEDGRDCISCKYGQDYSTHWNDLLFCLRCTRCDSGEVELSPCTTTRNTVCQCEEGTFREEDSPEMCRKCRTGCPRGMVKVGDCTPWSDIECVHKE

No constants are given. Whether binding was seen depends on the method and setting. Some results given as binding are weak or reduced against the parent protein; the word gives no strength. Where a sequence is shown, tags or fusion partners need not be part of it.

B1: 1C12-Cκ/1C12-IGHG1 (protein, not shown: a dimerising Fc or GST)
light: IEVKDVTDTTALITWAKPEKWDGSIYGCELTYGIKDVPGDRTTIDLNSRHTAYSIGNLKPDTEYEVSLICFTPYGAKSNPAKETFTTGGGTPT
heavy: B1 light
Take B1: the binding entry in experiment [1] and in experiment [2] was “binds” each time.

B2: 1C12-Fc (Fc fusion, not shown: a dimerising Fc or GST)
chain: IEVKDVTDTTALITWAKPEKWDGSIYGCELTYGIKDVPGDRTTIDLNSRHTAYSIGNLKPDTEYEVSLICFTPYGAKSNPAKETFTTGA
As to B2, the binding entry in experiment [1] and in experiment [2] was “binds” each time.

Source of the values: US20100298541A1.
